No constants are given. Whether binding was seen depends on the method and setting. Some entries that bind do so weakly or less than the wild type. Sequences can lack the tags named with a protein. One block for each binder: values may come before it.
Tests used:
[1] = biological target: T1, Scc3, recombinant, His6-tagged (S. cerevisiae (budding yeast)) (UniProt P40541); assay: co-sedimentation; 10–30% glycerol gradient; 10 mM HEPES-KOH pH 7.5, 75 mM NaCl, 0.25 mM EDTA; proteins mixed and preincubated 1 h at 4°C; 38000 rpm, 38 h, 4°C, SW40 Ti; fractions on Coomassie-stained SDS-PAGE; both purified
T1 sequence: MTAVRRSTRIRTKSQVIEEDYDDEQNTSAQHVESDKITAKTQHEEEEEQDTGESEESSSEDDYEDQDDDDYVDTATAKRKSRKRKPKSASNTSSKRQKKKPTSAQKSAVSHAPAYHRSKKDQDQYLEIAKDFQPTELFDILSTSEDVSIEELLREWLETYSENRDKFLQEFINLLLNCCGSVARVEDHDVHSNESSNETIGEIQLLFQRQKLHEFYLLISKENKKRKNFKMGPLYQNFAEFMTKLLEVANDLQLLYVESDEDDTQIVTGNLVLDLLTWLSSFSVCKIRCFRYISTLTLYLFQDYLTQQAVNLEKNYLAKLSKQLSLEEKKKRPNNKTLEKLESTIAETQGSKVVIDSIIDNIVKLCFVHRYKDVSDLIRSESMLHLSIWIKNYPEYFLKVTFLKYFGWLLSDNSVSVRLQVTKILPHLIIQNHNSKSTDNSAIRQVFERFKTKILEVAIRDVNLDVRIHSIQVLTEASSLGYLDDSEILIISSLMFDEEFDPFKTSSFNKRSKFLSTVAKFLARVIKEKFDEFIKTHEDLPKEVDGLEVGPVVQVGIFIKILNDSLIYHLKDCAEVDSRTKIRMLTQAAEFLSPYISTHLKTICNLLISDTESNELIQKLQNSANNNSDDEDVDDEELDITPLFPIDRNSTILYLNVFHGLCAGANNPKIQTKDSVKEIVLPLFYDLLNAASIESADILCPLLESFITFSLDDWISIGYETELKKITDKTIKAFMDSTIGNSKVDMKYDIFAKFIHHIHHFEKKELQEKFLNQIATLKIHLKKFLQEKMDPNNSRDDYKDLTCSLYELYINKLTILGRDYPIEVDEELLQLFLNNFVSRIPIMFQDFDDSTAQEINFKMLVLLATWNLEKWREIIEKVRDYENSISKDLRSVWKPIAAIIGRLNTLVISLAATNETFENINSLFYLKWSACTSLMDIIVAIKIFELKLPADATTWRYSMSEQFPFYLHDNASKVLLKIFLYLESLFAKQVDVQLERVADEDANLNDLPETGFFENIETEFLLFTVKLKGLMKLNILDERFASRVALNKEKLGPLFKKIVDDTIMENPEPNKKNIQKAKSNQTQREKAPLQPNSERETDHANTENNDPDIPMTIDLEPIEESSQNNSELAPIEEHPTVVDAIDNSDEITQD

[2] = biological target: T2, GST fused to the N-terminal region (aa 1–168) of Scc1 (S. cerevisiae (budding yeast)) (UniProt Q12158); assay: pull-down; GST fusions of Scc1 regions on glutathione-agarose beads; His6-tagged Wpl1, Scc3 and Pds5 mixed together and pre-incubated 30 min at 4°C, then with beads 2 h at 4°C; 20 mM HEPES pH 7.5, 100 mM NaCl, 5% glycerol, 5 mM 2-mercaptoethanol; washes with 0.5% NP-40; Western blot with Penta-His antibody; both purified
T2 sequence: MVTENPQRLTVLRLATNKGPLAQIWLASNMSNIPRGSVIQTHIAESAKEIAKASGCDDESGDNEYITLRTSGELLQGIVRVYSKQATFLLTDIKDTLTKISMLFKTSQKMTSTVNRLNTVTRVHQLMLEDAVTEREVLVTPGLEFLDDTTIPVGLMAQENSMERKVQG

[3] = biological target: T3, Pds5, recombinant, His6-tagged (S. cerevisiae (budding yeast)) (UniProt Q04264); assay: co-sedimentation; 10–30% glycerol gradient; 10 mM HEPES-KOH pH 7.5, 75 mM NaCl, 0.25 mM EDTA; proteins mixed and preincubated 1 h at 4°C; 38000 rpm, 38 h, 4°C, SW40 Ti; fractions on Coomassie-stained SDS-PAGE; both purified
T3 sequence: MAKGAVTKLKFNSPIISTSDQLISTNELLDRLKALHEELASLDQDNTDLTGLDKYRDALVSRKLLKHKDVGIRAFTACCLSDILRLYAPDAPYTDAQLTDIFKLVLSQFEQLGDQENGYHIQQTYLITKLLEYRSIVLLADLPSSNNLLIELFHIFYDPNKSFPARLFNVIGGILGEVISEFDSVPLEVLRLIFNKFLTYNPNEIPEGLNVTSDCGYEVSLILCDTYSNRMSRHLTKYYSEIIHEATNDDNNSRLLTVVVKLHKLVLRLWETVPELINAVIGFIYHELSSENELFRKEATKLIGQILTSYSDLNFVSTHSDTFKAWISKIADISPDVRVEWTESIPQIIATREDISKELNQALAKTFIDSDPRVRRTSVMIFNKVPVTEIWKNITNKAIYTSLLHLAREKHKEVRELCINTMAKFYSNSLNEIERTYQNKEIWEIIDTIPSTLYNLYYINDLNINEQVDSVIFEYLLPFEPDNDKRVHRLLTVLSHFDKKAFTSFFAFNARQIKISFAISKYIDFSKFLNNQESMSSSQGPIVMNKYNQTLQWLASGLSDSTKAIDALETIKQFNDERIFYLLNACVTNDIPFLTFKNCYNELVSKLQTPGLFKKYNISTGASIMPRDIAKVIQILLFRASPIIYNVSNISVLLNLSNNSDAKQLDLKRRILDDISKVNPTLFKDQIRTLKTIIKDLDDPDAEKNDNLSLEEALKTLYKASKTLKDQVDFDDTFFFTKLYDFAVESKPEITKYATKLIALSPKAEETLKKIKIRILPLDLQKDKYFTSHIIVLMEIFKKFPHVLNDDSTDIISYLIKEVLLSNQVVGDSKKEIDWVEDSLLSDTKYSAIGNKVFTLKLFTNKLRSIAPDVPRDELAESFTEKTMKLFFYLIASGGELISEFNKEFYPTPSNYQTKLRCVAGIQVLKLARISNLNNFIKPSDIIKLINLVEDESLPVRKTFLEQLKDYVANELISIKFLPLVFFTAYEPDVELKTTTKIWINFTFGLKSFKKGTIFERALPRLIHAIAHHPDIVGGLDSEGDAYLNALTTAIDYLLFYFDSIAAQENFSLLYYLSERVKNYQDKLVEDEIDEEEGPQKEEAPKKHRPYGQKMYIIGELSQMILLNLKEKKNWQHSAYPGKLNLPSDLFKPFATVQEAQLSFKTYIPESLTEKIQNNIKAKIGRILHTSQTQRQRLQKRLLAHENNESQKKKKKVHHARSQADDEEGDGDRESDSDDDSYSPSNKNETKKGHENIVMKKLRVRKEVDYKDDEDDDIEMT

binding [1]: binds weakly
B1: Wpl1, recombinant, His6-tagged (natural protein, S. cerevisiae (budding yeast), UniProt Q99359 1-647, looked up)
chain: MRAYGKRGPVLRTPFRSNKGLPSSSDVEFSDDDVNSVIPDVSSTISSSIADHPIEGLLDEPRKAQDSSSSFDGANEKPSSQLDSKRNDQNVKIITSSDTSMAFMKDEKLSAFNFLDGSKASKRKRRRTYQKHDANITSSIEPDVQDEDSITMHNEFESIRKIYNDINEFILKLPRADDDILNKMLENEMKMDDSIENNSIRTSKDKKYGKFRTILINKNKENEIMGEEVDQKANTLSLNNADNSNAEKEGLTSTNHYNELKNMGDTIKYQDDIEFLLSNSKSNDNTTVPINEYFKKLLNLSLMIINDEEFFQYAKRYFKKEIIKLSFAQFRSDFPELILLQGYLLHKVSESQSDFPPSFDNFSIELSKDDGKIRTKKNKHIKKLSHLNFEDFLRKTQFKTGLYYSLSLWEMHGNLSLDIIKRISILASNKDLFSRHVKTFIPLLEKLITASEFCHMYIEQPEMFDSLISNLNNQFKDMLDDDSLIKILILLTNMEVHNYTLWKEADMIFQSSMNTILESIHPLTDAKVDNILLHLGLCLNICSRENSRLKLDGKLWYDMKTIFVKMIRDGSDTENRLVQGLFYLNFSFLIKQRKENSNLDPGELNLLLVELEAFKSETSQFNEGISNKIEIALNYLKSIYTSERITI
notes: also called Rad61; His6-tagged Wpl1; source: E. coli BL21 (DE3) RIL, purified (Ni-NTA, gel filtration); not shown: His6, C-terminal, kept

binding [2]: binds weakly
binding [3]: binds weakly
B2: Scc3, recombinant, His6-tagged (protein, UniProt P40541 1-1150)
chain: T1 sequence

From paper PMC3415457, “Cohesin Rings Devoid of Scc3 and Pds5 Maintain Their Stable Association with the DNA” (PLoS Genetics, 2012)
